Source: PMC11372060, “Two KaiABC systems control circadian oscillations in one cyanobacterium” (Nature Communications, 2024)
No constants are given. Whether binding was seen depends on the method and setting. Sequences can lack the tags named with a protein.

Molecular target: KaiA3 (Sll0485), yeast two-hybrid fusion (Synechocystis sp. PCC 6803)
Assay: two-hybrid; AH109 yeast; GAL4 AD and BD fusions; growth on CSM -Leu -Trp -His with 12.5 mM 3-amino-1,2,4-triazole, 6 days at 30 °C

binding: no binding
B1: KaiC1, yeast two-hybrid fusion (protein, UniProt P74646 1-519)
chain: MNLPIVNERNRPDVPRKGVQKIRTVIEGFDEITHGGLPIGRTTLVSGTSGTGKTLLAVQFLYQGIHHFDYPGLFITFEESPSDIIENAYSFGWDLQQLIDDGKLFILDASPDPEGQEVVGTFDLSALIERIQYAVRKYKAKLVSIDSVTAVFQQYDAASVVRREIFRLVARLKQLQVTSIMTTERVEEYGPIARFGVEEFVSDNVVVLRNVLEGERRRRTVEILKLRGTTHMKGEYPFTITHDGINIFPLGAMRLTQRSSNARISSGVQTLDEMCGGGFFKDSIILATGATGTGKTLLVSKFLQEGCRQRERAILFAYEESRAQLSRNASSWGIDFEEMEHKGLLKLLCTYPESAGLEDHLQMIKSEISEFKPSRIAIDSLSALARGVTNNAFRQFVIGVTGYAKQEEITGFFTNTTDQFMGAHSITESHISTITDTILMLQYVEIRGEMSRALNVFKMRGSWHDKGIREYSISHDGPDIRDSFRNYERIISGSPTRISVDEKSELSRIVRGVKDKTAE
